The values below come from the supplement of paper PMC12819154, “High-throughput peptide-centric local stability assay extends protein–ligand identification to membrane proteins, tissues and bacteria” (Nature Structural & Molecular Biology, 2025).

Sequences of proteins named here, by UniProt entry; tags and fusion partners are left off. A change or cut given only in a name is not applied to a line headed by its entry.
UniProt P55789: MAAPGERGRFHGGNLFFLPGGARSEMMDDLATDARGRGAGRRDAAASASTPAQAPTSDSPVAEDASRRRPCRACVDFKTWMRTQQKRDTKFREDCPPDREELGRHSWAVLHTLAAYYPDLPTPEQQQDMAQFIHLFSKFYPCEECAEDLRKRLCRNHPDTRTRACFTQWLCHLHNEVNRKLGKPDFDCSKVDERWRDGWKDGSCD
UniProt P57721, whole entry: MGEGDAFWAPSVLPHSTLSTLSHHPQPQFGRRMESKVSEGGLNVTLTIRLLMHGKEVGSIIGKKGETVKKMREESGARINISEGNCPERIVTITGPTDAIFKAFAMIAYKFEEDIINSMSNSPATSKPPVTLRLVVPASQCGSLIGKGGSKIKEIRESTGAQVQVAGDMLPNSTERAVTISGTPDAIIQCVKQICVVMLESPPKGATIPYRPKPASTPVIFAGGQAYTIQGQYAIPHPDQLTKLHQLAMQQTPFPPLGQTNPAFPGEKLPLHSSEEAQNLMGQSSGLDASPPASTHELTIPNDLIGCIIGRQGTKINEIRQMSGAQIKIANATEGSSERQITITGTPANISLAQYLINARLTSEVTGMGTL
UniProt P57076: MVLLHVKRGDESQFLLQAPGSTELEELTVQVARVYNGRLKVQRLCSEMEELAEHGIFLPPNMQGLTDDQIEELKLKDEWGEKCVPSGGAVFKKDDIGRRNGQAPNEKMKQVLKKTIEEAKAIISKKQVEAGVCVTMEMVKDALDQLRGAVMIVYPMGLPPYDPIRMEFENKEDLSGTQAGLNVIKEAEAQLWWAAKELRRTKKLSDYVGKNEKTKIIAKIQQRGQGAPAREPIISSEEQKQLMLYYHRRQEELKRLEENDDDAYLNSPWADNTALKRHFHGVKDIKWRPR
UniProt P68366, whole entry: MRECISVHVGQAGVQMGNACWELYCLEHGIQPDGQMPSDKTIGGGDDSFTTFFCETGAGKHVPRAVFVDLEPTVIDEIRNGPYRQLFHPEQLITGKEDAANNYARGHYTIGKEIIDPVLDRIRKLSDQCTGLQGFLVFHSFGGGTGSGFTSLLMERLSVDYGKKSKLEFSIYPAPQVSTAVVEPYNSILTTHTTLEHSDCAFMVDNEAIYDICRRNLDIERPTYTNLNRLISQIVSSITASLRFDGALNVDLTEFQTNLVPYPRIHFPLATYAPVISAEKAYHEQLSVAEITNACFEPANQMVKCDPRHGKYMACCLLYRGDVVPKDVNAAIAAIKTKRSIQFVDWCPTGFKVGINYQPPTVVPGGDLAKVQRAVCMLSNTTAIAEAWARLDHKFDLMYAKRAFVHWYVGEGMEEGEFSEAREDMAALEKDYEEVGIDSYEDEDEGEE
UniProt P59817: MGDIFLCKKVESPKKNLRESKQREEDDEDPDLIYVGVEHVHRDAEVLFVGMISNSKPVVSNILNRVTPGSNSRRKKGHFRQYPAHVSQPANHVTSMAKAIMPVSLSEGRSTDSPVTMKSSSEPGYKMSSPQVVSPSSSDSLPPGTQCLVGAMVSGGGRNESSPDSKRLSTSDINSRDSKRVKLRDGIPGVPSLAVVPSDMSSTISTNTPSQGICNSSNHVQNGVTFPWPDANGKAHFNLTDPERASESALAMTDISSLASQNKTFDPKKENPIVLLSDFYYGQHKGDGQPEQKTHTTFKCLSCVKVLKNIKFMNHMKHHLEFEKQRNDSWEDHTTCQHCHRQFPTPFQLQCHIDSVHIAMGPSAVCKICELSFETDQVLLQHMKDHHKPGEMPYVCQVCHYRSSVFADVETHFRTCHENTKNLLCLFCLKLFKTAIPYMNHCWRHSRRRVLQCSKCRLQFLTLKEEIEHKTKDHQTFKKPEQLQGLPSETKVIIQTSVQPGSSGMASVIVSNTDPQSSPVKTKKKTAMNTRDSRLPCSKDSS
UniProt P69905, whole entry: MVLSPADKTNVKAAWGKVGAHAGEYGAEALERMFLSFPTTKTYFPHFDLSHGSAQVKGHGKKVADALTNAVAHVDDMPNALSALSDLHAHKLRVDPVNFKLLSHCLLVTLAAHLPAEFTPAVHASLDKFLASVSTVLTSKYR
UniProt P84095: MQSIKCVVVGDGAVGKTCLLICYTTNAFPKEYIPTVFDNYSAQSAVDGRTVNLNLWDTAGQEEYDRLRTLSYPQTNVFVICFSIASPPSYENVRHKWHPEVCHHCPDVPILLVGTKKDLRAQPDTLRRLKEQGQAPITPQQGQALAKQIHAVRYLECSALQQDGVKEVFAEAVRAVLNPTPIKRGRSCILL
UniProt P59780: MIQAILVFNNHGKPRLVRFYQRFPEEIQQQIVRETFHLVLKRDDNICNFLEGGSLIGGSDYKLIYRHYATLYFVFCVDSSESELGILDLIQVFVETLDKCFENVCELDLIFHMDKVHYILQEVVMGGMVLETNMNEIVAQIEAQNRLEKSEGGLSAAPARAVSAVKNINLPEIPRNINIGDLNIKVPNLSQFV
UniProt P62879, whole entry: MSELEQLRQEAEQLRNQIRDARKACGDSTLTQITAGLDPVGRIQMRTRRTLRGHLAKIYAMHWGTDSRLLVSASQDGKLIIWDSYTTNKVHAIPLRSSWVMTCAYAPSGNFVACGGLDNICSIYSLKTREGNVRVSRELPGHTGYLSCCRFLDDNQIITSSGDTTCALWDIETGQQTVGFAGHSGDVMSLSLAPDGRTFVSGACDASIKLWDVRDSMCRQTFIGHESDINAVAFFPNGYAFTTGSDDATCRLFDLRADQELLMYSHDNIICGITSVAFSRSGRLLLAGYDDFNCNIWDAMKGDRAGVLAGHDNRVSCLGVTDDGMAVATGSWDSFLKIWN
UniProt P78356: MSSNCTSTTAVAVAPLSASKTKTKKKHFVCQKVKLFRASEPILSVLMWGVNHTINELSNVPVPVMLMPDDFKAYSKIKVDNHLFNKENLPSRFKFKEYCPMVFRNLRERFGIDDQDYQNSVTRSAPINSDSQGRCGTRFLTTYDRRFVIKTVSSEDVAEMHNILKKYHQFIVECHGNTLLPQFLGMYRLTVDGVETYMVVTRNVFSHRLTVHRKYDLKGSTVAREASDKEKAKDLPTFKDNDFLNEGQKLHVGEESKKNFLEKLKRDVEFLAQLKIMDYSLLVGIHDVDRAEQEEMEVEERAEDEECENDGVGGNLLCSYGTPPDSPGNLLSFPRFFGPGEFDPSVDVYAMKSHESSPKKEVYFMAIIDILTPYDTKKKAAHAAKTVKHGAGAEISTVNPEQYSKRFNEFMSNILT
UniProt P57740: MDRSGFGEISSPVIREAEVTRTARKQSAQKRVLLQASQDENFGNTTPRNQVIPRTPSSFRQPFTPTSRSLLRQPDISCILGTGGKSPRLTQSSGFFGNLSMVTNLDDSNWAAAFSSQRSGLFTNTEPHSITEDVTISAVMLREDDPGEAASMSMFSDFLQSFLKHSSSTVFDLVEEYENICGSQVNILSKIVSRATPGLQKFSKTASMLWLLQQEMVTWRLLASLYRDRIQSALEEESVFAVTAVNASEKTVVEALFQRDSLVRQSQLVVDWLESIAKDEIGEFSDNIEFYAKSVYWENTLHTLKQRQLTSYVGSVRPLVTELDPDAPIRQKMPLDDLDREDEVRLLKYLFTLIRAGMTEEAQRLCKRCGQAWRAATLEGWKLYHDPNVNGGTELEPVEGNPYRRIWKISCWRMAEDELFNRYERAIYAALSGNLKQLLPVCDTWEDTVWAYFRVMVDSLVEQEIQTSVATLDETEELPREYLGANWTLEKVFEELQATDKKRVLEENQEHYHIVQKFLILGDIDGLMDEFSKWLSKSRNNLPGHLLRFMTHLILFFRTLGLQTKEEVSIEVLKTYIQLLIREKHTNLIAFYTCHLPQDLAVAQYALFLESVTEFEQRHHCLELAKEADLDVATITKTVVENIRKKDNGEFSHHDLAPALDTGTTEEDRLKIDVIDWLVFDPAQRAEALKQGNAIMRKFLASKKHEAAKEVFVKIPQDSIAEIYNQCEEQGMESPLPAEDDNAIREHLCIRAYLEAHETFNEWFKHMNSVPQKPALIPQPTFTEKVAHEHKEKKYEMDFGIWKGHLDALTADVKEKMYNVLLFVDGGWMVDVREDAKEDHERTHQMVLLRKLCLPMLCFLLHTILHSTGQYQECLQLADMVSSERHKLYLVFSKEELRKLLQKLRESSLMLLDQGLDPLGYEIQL
UniProt P61981: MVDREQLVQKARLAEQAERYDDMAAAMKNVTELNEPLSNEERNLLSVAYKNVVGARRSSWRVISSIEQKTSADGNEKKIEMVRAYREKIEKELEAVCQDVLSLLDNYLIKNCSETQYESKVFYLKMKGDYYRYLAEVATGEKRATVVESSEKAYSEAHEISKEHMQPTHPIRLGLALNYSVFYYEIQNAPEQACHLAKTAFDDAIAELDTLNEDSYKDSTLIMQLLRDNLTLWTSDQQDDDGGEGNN
UniProt P62333, whole entry: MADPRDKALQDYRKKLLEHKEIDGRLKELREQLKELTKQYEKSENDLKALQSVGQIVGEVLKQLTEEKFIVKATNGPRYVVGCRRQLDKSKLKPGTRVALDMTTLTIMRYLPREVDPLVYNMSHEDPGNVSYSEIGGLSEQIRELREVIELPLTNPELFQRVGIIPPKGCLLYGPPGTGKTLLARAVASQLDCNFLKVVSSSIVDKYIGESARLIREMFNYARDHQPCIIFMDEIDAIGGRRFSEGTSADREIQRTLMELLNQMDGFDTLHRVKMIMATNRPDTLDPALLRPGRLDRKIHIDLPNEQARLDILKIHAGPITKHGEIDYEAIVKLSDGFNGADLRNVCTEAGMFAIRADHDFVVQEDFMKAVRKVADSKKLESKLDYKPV
UniProt P80303: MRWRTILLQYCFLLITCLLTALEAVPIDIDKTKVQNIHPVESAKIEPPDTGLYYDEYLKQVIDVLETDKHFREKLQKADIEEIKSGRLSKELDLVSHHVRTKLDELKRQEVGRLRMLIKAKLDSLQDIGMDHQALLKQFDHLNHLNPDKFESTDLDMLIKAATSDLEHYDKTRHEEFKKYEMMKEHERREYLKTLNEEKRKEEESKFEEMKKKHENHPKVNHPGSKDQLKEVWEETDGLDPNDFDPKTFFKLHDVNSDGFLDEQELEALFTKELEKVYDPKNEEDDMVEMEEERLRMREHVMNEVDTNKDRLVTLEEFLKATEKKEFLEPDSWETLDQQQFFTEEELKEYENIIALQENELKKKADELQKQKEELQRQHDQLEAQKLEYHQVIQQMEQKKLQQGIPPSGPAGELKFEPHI
UniProt P55011: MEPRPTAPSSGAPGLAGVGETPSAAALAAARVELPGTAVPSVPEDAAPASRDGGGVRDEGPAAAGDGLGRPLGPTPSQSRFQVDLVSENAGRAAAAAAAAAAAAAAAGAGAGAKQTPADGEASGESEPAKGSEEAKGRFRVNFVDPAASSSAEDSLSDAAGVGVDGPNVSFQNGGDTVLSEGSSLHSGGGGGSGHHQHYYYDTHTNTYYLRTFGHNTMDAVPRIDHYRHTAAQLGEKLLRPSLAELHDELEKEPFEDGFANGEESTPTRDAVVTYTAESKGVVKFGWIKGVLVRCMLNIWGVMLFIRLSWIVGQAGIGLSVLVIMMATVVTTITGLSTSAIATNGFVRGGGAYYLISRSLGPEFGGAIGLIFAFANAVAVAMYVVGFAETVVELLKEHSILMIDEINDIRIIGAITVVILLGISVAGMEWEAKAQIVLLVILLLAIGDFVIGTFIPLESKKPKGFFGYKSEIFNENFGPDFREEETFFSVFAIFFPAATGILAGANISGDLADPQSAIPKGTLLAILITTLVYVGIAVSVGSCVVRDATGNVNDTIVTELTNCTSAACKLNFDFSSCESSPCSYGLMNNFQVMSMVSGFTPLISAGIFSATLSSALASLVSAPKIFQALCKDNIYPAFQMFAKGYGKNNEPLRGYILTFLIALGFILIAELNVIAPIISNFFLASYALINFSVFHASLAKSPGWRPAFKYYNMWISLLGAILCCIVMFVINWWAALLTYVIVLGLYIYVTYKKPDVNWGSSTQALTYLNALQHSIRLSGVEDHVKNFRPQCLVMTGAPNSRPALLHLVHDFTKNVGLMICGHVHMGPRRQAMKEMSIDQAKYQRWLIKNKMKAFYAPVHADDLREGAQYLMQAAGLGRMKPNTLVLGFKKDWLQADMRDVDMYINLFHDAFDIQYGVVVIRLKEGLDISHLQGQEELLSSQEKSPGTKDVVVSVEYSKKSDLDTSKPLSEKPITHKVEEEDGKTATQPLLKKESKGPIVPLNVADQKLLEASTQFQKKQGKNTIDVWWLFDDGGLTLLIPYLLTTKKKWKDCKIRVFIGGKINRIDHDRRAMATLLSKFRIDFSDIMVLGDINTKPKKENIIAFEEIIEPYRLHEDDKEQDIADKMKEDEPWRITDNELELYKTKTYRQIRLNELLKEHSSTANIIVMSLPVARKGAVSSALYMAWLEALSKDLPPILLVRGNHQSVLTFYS
UniProt P55822: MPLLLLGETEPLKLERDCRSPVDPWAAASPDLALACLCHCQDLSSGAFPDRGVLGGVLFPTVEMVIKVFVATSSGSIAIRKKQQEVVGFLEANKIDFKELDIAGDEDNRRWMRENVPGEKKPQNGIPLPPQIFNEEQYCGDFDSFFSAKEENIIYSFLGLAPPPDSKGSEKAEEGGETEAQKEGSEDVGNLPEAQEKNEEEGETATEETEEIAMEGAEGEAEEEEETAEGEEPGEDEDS

Some of the results follow. Most values lie at the level of the controls, where differences are scatter.

Compound in the assay: CN[C@@H]1C[C@H]2O[C@@](C)([C@@H]1OC)n1c3ccccc3c3c4c(c5c6ccccc6n2c5c31)C(=O)NC4 [staurosporine]
Kind of assay: log2 fold change of tryptic peptide abundance, ligand vs vehicle (limited proteolysis) (log2 ratio); higher = more trypsin-susceptible (destabilized). The conditions noted are these: ligand concentration: 20 uM; sample: K562 cleared lysate; digestion: 4 min, 22 C (HT-PELSA RT4min, Orbitrap Astral).
As to “GFER (peptide sequence: FHGGNLFFLPGGAR, peptide start residue: 10) (UniProt P55789)”, the log2 fold change was -0.146.
Consider “UniProt P61201 (peptide sequence: LIKPYTR, peptide start residue: 362)”, for which the log2 fold change is 0.677.
On to “PCBP3 (peptide sequence: QICVVMLESPPK, peptide start residue: 193) (UniProt P57721)”, for which the log2 fold change was -0.177.
Turning to “UniProt P62847 (peptide sequence: MNDTVTIRTR, peptide start residue: 1)”, the log2 fold change turned out to be 1.15.
The result for “UniProt P57076 (peptide sequence: KLSDYVGK, peptide start residue: 203)” reads 0.158.
The result for “BTG1 (peptide sequence: ISCKEELLLGR, peptide start residue: 147) (UniProt P62324)” reads -0.088; that for “UniProt P68366 (peptide sequence: YMACCLLYRGDVVPK, peptide start residue: 312)”, -0.157.
Regarding “ZNF280A (peptide sequence: AIMPVSLSEGR, peptide start residue: 99) (UniProt P59817)”, the log2 fold change stood at 0.191.
Next, “HBA1 (peptide sequence: VGAHAGEYGAEALER, peptide start residue: 18) (UniProt P69905)”: -0.22; “UniProt P84095 (peptide sequence: AQPDTLRR, peptide start residue: 121)”: 0.398; “UniProt P59780 (peptide sequence: NINLPEIPR, peptide start residue: 167)”: -0.125.
Next, “UniProt P62495 (peptide sequence: GFGGIGGILR, peptide start residue: 405)”: 0.364; “RPS27A (peptide sequence: YYKVDENGKISR, peptide start residue: 105) (UniProt P62979)”: -0.249.
Next, “P62737 (peptide sequence: MQKEITALAPSTMK, peptide start residue: 313) (UniProt P62736)”: 0.246; “UniProt P62879 (peptide sequence: ACGDSTLTQITAGLDPVGR, peptide start residue: 24)”: 0.213.
As for “UniProt P78356 (peptide sequence: LHVGEESKK, peptide start residue: 250)”, the log2 fold change was 0.167.
Next, “NUP107 (peptide sequence: SLLRQPDISCILGTGGKSPR, peptide start residue: 69) (UniProt P57740)”: 0.607; “UniProt P83731 (peptide sequence: TDGKVFQFLNAKCESAFLSK, peptide start residue: 24)”: 0.481; “UniProt P62318 (peptide sequence: IRFLILPDMLK, peptide start residue: 68)”: -0.247.
The result for “UniProt P61981 (peptide sequence: EHMQPTHPIR, peptide start residue: 163)” reads 0.473; that for “UniProt P62244 (peptide sequence: FLTVMMK, peptide start residue: 37)”, -0.194; that for “UniProt P62854 (peptide sequence: CTNCARCVPK, peptide start residue: 23)”, 0.125.
Next, “UniProt P62333 (peptide sequence: VGIIPPKGCLLYGPPGTGKTLLAR, peptide start residue: 162)”: 0.535; “UniProt P62805 (peptide sequence: TVTAMDVVYALKRQGR, peptide start residue: 81)”: 0.76.
Turning to “NUCB2 (peptide sequence: AKLDSLQDIGMDHQALLK, peptide start residue: 120) (UniProt P80303)”, the log2 fold change is -0.56.
Next, “SLC12A2 (peptide sequence: AAAAAAAAAAAAAAAGAGAGAK, peptide start residue: 93) (UniProt P55011)”: 0.196; “SH3BGR (peptide sequence: AEEGGETEAQK, peptide start residue: 172) (UniProt P55822)”: 0.577; “ACTR3 (peptide sequence: KEFSIDVGYER, peptide start residue: 265) (UniProt P61158)”: 0.749.
“MRPS9 (peptide sequence: QIEEFNIGKR, peptide start residue: 77) (UniProt P82933)”: the log2 fold change amounted to 0.361.
